In US20240360222A1:
No constants are given. Whether binding was seen depends on the method and setting. Some results given as binding are weak or reduced against the parent protein; the word gives no strength.

Chains of the proteins cited; added tags and fusions are not shown. Lines headed by an entry give the natural chain unless they say otherwise; changes in a name come on top.
UniProt P26010: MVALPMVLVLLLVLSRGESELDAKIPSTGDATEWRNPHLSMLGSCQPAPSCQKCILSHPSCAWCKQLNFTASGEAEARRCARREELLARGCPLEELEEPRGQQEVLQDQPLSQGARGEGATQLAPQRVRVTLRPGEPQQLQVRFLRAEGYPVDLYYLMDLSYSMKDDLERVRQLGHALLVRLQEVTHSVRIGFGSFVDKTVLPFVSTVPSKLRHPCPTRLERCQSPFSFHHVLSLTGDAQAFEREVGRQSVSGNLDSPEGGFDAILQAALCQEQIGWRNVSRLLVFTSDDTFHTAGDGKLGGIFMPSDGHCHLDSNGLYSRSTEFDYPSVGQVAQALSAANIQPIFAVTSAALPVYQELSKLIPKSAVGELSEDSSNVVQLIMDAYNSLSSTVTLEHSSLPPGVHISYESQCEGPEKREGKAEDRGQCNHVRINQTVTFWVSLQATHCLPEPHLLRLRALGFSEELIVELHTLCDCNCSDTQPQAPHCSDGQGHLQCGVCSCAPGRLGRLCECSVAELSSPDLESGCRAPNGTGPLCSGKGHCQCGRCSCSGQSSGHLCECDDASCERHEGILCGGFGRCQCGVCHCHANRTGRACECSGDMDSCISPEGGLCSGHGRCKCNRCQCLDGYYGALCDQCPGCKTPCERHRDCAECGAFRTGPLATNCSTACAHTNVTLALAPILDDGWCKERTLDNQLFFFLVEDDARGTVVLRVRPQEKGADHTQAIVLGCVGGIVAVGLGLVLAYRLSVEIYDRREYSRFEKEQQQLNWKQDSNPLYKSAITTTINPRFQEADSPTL

Tests used:
[1] = target: chimeric integrin β7 protein (#4944) (mouse; human) (UniProt P26011); assay: FACS of 293T cells transiently expressing the chimera
[2] = target: chimeric integrin β7 protein (#4945) (mouse; human) (UniProt P26011); assay: as above
[3] = target: human integrin β7 variant H38D (human) (UniProt P26010); assay: FACS (MFI) of 293T cells expressing the variant; kept binding is implied by the sentence
[4] = target: human integrin β7 variant R35E/N36D (human) (UniProt P26010); assay: as above
[5] = target: human integrin β7 variant M41L/L42Q (human) (UniProt P26010); assay: as above

Measured: binding

B1: MMG49 antibody (antibody, V domains shown)
VH: QVQLQQSGAELMKPGASVKISCKASGYTFSSYWIEWVKQRPGHGLEWIGEMLPGSGSSNYNEKFKGKATFTADTSSNTAYMQLSSLTSEDSAVYYCARGDGNYWYFDVWGAG
VL: QIVLSQSPAILSASPGEKVTMTCRASSSVGYMHWFQQKPGSSPKPWIYATSNLASGVPARFSGSESGTSYSLTISRVEAEDAATYYCQQWSSDPPTFGGGTKLEIK
binds: [1] | [2] | [3] | [4] | [5]
